Measured values published in US6518314B1, “Pharmaceutical agents that impede the initiation and progression of primary and secondary DMS disruptions” (Nymox Corporation, priority 1997, dated 2003).

System: human DMS
Assay: In vivo assay: intracerebral injection of human DMS plus compound into rats, histology of DMS disruption site
Conditions: initial mean volume of tissue occupied by the DMS; rats injected with about 100,000 human DMS and compound at 10^−5M, total volume about 100 μl

Compound	Mean Volume DMS [μ^3]
CC(Cc1ccccc1)N1CCN(C(c2ccccc2)c2ccccc2)CC1 (racemic) [Compound 1, (±)-1-(1-Phenylisopropyl)-4-(diphenylmethyl)piperazine]	1153
Clc1ccc2c(c1)C(N1CCNCC1)=Nc1ccccc1O2 [Amoxepine]	907
c1ccc(C(OCCOC(c2ccccc2)c2ccccc2)c2ccccc2)cc1 [Compound 2, 1,2-Bis(diphenylmethoxy)ethane]	525
Clc1ccc(C(OCCOC(c2ccccc2)c2ccc(Cl)cc2)c2ccccc2)cc1 (stereo not drawn) [Compound 4, 1,2-Bis(4chlorophenylphenylmethoxy)ethane]	525
FC(F)(F)c1ccc(C(OCCOC(c2ccccc2)c2ccc(C(F)(F)F)cc2)c2ccccc2)cc1 (stereo not drawn) [Compound 5, 1,2-Bis(4-trifluoromethylphenylphenylmethoxy)ethane]	907
Cc1ccccc1C(OCCOC(c1ccccc1)c1ccccc1C)c1ccccc1 (stereo not drawn) [Compound 6, 1,2-Bis(2-methylphenylphenylmethoxy)ethane]	907
CN(CCC=C1c2ccccc2CCc2ccccc21)CCOC(c1ccccc1)c1ccccc1 [Compound 9, 3-(10,11-Dihydro-5H-dibenzo[a,d]cyclohepten-5-ylidene-N-methyl-N-[2-(diphenylmethoxy)ethyl)]-1-propaneamine]	383
CN(CCC=C1c2ccccc2CCc2ccccc21)CCOC(c1ccccc1)c1ccc(Cl)cc1 (stereo not drawn) [Compound 10, 3-(10,11-Dihydro-5H-dibenzo[a,d]cyclohepten-5-ylidene-N-methyl-N-[2-(4-chlorophenylphenylmethoxy)ethyl)]-1-propaneamine]	383
COC(=O)C1=C(C)N(CCOC(c2ccccc2)c2ccccc2)C(C)=C(C(=O)OC)C1c1ccccc1 [Compound 11]	907
CC(COc1ccc(/C(=C/c2ccccc2)c2ccccc2)cc1)N1CCN(C(c2ccccc2)c2ccccc2)CC1 (stereo not drawn) [Compound 12]	525
Cn1cnc2c1c(=O)n(CCOC(c1ccccc1)c1ccccc1)c(=O)n2C [Compound 13]	1440
Cn1cnc2c1c(=O)n(CCOC(c1ccccc1)c1ccc(Cl)cc1)c(=O)n2C (stereo not drawn) [Compound 14]	1440
CN1C(=O)CN=C(c2ccccc2)c2cc(Cl)ccc21 [Diazepam]	383
C[C@@H](CO)NC(=O)[C@@H]1C=C2c3cccc4[nH]cc(c34)C[C@H]2N(C)C1 [Ergonovine]	525
CN1C[C@H](C(=O)N[C@]2(C)O[C@@]3(O)[C@@H]4CCCN4C(=O)[C@H](Cc4ccccc4)N3C2=O)C=C2c3cccc4[nH]cc(c34)C[C@H]21 [Ergotamine]	525
CN(C)CCCN1c2ccccc2CCc2ccccc21 [Imipramine]	907
O=C1Nc2ccc(Cl)cc2C(c2ccccc2Cl)=NC1O (stereo not drawn) [Lorazepam]	383
CCOC(=O)C1(c2ccccc2)CCN(C)CC1 [Meperidine]	1153
COC(=O)C(c1ccccc1)C1CCCCN1 (stereo not drawn) [Methylphenidate]	525
CN(C)C(=O)Oc1cccc([N+](C)(C)C)c1 [Neostigmine]	1440
CCCN1C[C@H](CSC)C[C@@H]2c3cccc4[nH]cc(c34)C[C@H]21 [Pergolide]	907
CC[C@@H]1C(=O)OC[C@@H]1Cc1cncn1C [Pilocarpine]	1440
C#CCN(C)[C@H](C)Cc1ccccc1 [Selegiline]	907
Nc1c2c(nc3ccccc13)CCCC2 [Tacrine]	525
